What was measured:
[1] = test system: mHEVa endothelial cells; assay: Tocopherol concentration in mHEVa endothelial cells after in vitro treatment; conditions: 18 hours
[2] = test system: IL-4, IL-5, IFNγ and IL-2; assay: BAL cytokines IL-4, IL-5, IFNγ, IL-2 (Th1/Th2 CBA kit); conditions: tocopherols after antigen sensitization, before challenge

SMILES	Endothelial cell concentration of α-tocopherol ([1]; 80 μM α-tocopherol in culture medium)	Endothelial cell concentration of γ-tocopherol ([1]; 5 μM γ-tocopherol in culture medium, to that in lung tissue of tocopherol-treated mice)	BAL cytokines [2]
Cc1c(C)c2c(c(C)c1O)CC[C@@](C)(CCC[C@H](C)CCC[C@H](C)CCCC(C)C)O2 [α-tocopherol, d-α-tocopherol, reference compound]	five fold		
Cc1c(O)cc2c(c1C)O[C@](C)(CCC[C@H](C)CCC[C@H](C)CCCC(C)C)CC2 [γ-tocopherol, d-γ-tocopherol]		raised	did not alter

From patent US20100076072A1, “COMPOSITIONS AND METHODS OF VITAMIN E ADMINISTRATION” (NORTHWESTERN UNIVERSITY, priority 2008, published 2010)
